{"source": "patent US20010036591A1", "about": "(priority 1999, published 2001)", "data": [{"smiles": "Cc1ccc(S(=O)(=O)[O-])cc1.Cc1ccc([I+]c2ccc(CC(C)C)cc2)cc1", "note": "[Example 11, (4-isobutylphenyl)-ptolyl-iodonium p-tosylate]", "values": [{"measurement": "minimum transmission value at which the resist is fully developed", "setting": "2.0% iodonium salt based on polymer, 1 micrometre, exposure 120 seconds, no sensitiser", "result": 16, "unit": "%"}, {"measurement": "exposure energy", "setting": "corresponding to the minimum transmission value, OAI 220 probe", "result": 26.9, "unit": "mJ/cm^2"}]}]}
